Among the data in PubChem BioAssay AID2685 (National Center for Advancing Translational Sciences (NCATS), 2010) are AC50 and cell number change values, retold here.

The nature of this assay: qHTS Assay for Lipid Storage Modulators in Drosophila S3 Cells.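 For cell number change: cells counted by Cell Tracker Red CMTPX staining in the red channel.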 Particulars: BODIPY lipid droplet fluorescence, 18-24 h; for cell number change: measured here: cell count max response, cells fed with added oleic acid. The method, boiled down: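 Drosophila S3 cells loaded with oleic acid (400 uM, as added) and compounds at several concentrations; lipid droplets imaged by 488-nm laser-scanning cytometry, 500–530 nm intensity and object ratio to cell channel. Percent activity normalized to 20 uM Triacsin C.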
Background: Quantitative high-throughput screening tests each substance at several concentrations.

Where [1] appears, read: measured here: cell number channel AC50, cells fed with added oleic acid.
Where [2] appears, read: measured here: lipid fluorescence (Fed channel) AC50, cells fed with added oleic acid.

The list shows a part of the results. Shown are side measurements of this screen, not its main read-out; they come without a call. Compounds called inactive in the main read-out are mostly missing here. Potencies come from curve fits of mixed quality, noted in brackets.

In the case of `CCN1CCN(S(=O)(=O)c2ccc(Oc3ccccc3OC)cc2)CC1`, the AC50 – broadly, the concentration giving half of the maximal activity seen – under setting [1] is 2.06 µM [falling, partial curve, poor fit] and the AC50 under setting [2] is 0.00517 µM [falling, full curve, poor fit].

In the case of `CCCS(=O)(=O)N1CCCC(C(=O)NCCCN(C)c2ccccc2)C1` (stereo not given), the cell number change was -16.6%.

For `COc1ccccc1NC(=O)CN1CCC(n2c(C)nc3cc(F)ccc32)CC1`, the cell number change is -8.53%.

As for `COc1ccc(-n2cc(CNCCc3cnc[nH]3)c(-c3cccc(F)c3)n2)cc1`, the cell number change was -39%. For the same compound, the AC50 under setting [1] is 29.1 µM [falling, single point].

With `CC(=O)c1c(C)[n+]([O-])c2ccc3c(non3O)c12`, the cell number change was 30.2%. In addition, the AC50 under setting [2] is 6.51 µM [rising, partial curve, poor fit].

As for `CCOc1ccc(Cn2ccnc2)cc1[N+](=O)[O-]`, the cell number change came out at 37.4%. Also, under setting [1], the AC50 was 0.731 µM [rising, full curve]. For the same compound, under setting [2], the half-maximal activity concentration (AC50) was 1.64 µM [rising, partial curve].

Regarding `CCCCCCCOC(=O)C[N+](C)(C)CCOC1CC2CCC1(C)C2(C)C` (stereo not given), the cell number change is -64.5%. For the same compound, the AC50 under setting [1] is 18.4 µM [falling, partial curve]. Also, under setting [2], the AC50 was 13 µM [falling, partial curve].

Take `CCOc1ccc2c(c1)s/c(=N\S(=O)(=O)c1ccc(OC)cc1)n2C(F)F`: the cell number change stood at 39.6%. In addition, under setting [1], the AC50 was 0.366 µM [rising, partial curve, poor fit]. The concentration at half-maximal activity (AC50) under setting [2] is 3.26 µM [rising, full curve].

As to `Fc1cccc(Cl)c1Cn1ncc2ccccc21`, the cell number change amounted to 4.93%. Moreover, the concentration at half-maximal activity (AC50) under setting [2] is 2.31 µM [rising, partial curve].

Regarding `CSc1ccc(S(=O)(=O)NCC(=O)OCC(=O)N(C)Cc2ccccc2)cc1[N+](=O)[O-]`, the cell number change was -44.7%. Further, the AC50 under setting [1] is 29.1 µM [falling, single point].

`O=C(O)CN(c1ccccc1F)S(=O)(=O)c1ccccc1`: the cell number change was -18.5%. Further, the AC50 under setting [2] was 0.291 µM [falling, full curve, poor fit].

As to `CCOC(=O)c1c(-c2ccccc2)oc2ccc(OC)cc12`, the cell number change was 38.9%. The AC50 under setting [1] was 29.1 µM [rising, single point]. For the same compound, the AC50 under setting [2] was 23.1 µM [rising, single point].

As to `Cc1cccc(C)c1NC(=O)c1sc(Cl)nc1C`, the cell number change came to 13.4%. Moreover, under setting [2], the concentration at half-maximal activity (AC50) is 3.26 µM [rising, full curve, poor fit].

Consider `CCc1nnc(NC(=O)c2nc(S(=O)(=O)Cc3ccccc3)ncc2Cl)s1`, for which the cell number change is -5.31%. In addition, the AC50 under setting [1] was 4.61 µM [falling, single point]. The AC50 under setting [2] was 4.61 µM [falling, full curve].

Regarding `CCN1C(=O)/C(=C\c2ccc(-c3ccc([N+](=O)[O-])cc3OC)o2)SC1=Nc1cccc(C(=O)O)c1`, the cell number change is -9.04%.

Consider `CCOC(=O)c1oc2ccccc2c1COC(=O)CNC(=O)c1ccco1`, for which the cell number change was -0.901%. Further, the AC50 under setting [2] is 23.1 µM [rising, single point].

For `COc1cccc(-c2cnc(OC(C)(C)C)nc2OC(C)(C)C)c1`, the cell number change stood at 31.2%. The AC50 under setting [1] is 29.1 µM [rising, single point]. In addition, the concentration at half-maximal activity (AC50) under setting [2] is 25.9 µM [falling, single point].

Take `CN1c2ccsc2C(O)=C(C(=S)Nc2ccc(F)c(Cl)c2)S1(=O)=O`: the cell number change is 17.2%. Further, the AC50 under setting [2] is 6.51 µM [falling, single point].

For the compound `COCc1cc(=O)[nH]c(Nc2nc3ccc(C)cc3o2)n1`, the concentration at half-maximal activity (AC50) under setting [1] was 6.51 µM [rising, single point].

In the case of `COc1ccc(NS(=O)(=O)c2cc(NC(=O)c3ccc(=O)[nH]n3)ccc2C)cc1`, the cell number change worked out at 27.1%. In addition, the AC50 under setting [2] was 0.00461 µM [falling, full curve, poor fit].

Consider `O=C(O)C1CCCCC1C(=O)Nc1ccccn1` (stereo not given), for which the cell number change turned out to be 0.0445%. The AC50 under setting [2] is 5.8 µM [falling, full curve].

Consider `O=C(Nc1ccccc1O)c1ccc2c(c1)C(=O)N(c1ccccc1)C2=O`, for which the cell number change is 22.5%. Moreover, under setting [2], the concentration at half-maximal activity (AC50) was 5.17 µM [falling, single point].

As to `C=CCSc1nc2sc3c(c2c(=O)[nH]1)CCC3`, the cell number change is -40.3%. Under setting [1], the AC50 was 29.1 µM [falling, single point].

For the compound `CC(C)C1C(c2ccccc2)NC(c2ccccc2)CC1(O)c1ccc(F)cc1` (stereo not given), the cell number change was -66.7%. Further, under setting [1], the AC50 was 23.1 µM [falling, partial curve, poor fit]. The AC50 under setting [2] is 11.6 µM [falling, partial curve].

Turning to `CCCC(=O)OCC(=O)Nc1ccc2[nH]c(=O)[nH]c2c1`, the cell number change was determined as 0.923%. Also, under setting [2], the concentration at half-maximal activity (AC50) is 0.651 µM [rising, single point].

As for `CCOC(=O)CCNC(=O)N1CCC(CCC(=O)NCc2ccc(F)cc2)CC1`, the cell number change is -8.62%. Moreover, under setting [2], the concentration at half-maximal activity (AC50) was 25.9 µM [falling, partial curve, poor fit].

For `CCOc1ccccc1N1C(=O)c2ccc(C(=O)O)cc2C1=O`, under setting [2], the AC50 was 5.8 µM [falling, full curve].

As to `NC(=O)c1ccsc1NC(=O)COC(=O)c1nc(Cl)ccc1Cl`, the cell number change is 11.7%. For the same compound, the concentration at half-maximal activity (AC50) under setting [2] was 18.4 µM [rising, single point].

Take `CCNC(=O)NC(=O)CSc1ccc(S(=O)(=O)N(C)C2CCCCC2)cn1`: the cell number change was -18.3%. For the same compound, the concentration at half-maximal activity (AC50) under setting [2] was 18.4 µM [rising, single point].

In the case of `CCC1CCCCN1CCCNC(=O)CSc1nc2nc(C)c(Cc3ccccc3)c(C)n2n1` (stereo not given), the cell number change was -7.62%.

As for `COc1ccccc1CN1CC(C(=O)NCCN2CCOC2=O)CCC1=O` (stereo not given), the cell number change is -12.2%. In addition, under setting [1], the AC50 is 0.366 µM [falling, partial curve, poor fit].

Turning to `O=C(Oc1ccc(Nc2ncnc3ccccc23)cc1)c1cccnc1`, the cell number change is -42.4%. Further, the AC50 under setting [1] is 4.11 µM [falling, partial curve, poor fit]. The concentration at half-maximal activity (AC50) under setting [2] was 5.17 µM [falling, partial curve, poor fit].

`O=C(/C=C/c1ccc(F)cc1)NC(=S)Nc1ccccc1C(=O)NC1CCCCC1`: the cell number change was -14.7%. In addition, under setting [2], the AC50 was 29.1 µM [falling, single point].

Consider `COc1ccccc1-c1c(-c2ccc(O)cc2O)n[nH]c1C(F)(F)F`, for which the cell number change was -48.6%. Moreover, the half-maximal activity concentration (AC50) under setting [1] is 11.6 µM [falling, partial curve]. For the same compound, the concentration at half-maximal activity (AC50) under setting [2] is 6.51 µM [falling, full curve].

As to `COc1ccccc1-c1nn(Cc2ccccc2)cc1C(=O)N1CCN(c2ncccn2)CC1`, the cell number change is 3.45%. Also, the half-maximal activity concentration (AC50) under setting [2] was 6.51 µM [rising, single point].

On to `O=C(CN(c1ccc(F)cc1)S(=O)(=O)c1ccc2c(c1)OCCO2)NCc1ccccn1`, for which the cell number change worked out at 25.7%. Besides, under setting [2], the AC50 was 6.51 µM [rising, single point].
